This is one part of the list.
Columns and labels:
Assay in all cases: glycan array binding signal (z-score within array); higher = stronger binding
Conditions in all cases: glycan notation: IUPAC condensed, linker removed
[1] = biological target: Fuc(a1-2)Gal6S(b1-3)GlcNAc
Summary of the method: (§1)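 From the Consortium for Functional Glycomics database, 3228 arrays were curated, keeping only those whose protein sequence was available. Binding is given as a within-array Z-score averaged across arrays sharing a protein sequence and across linkers. Negative Z-scores can be read as non-binding.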

[2] = biological target: Fuc(a1-2)Gal6S(b1-3)GlcNAc6S
Summary of the method: as §1

[3] = biological target: Fuc(a1-2)Gal6S(b1-4)Glc
Summary of the method: as §1

[4] = biological target: Fuc(a1-2)Gal6S(b1-4)Glc6S
Summary of the method: as §1

[5] = biological target: Fuc(a1-2)[Gal(a1-3)]Gal
Summary of the method: as §1

[6] = biological target: Fuc(a1-2)[Gal(a1-3)]Gal(b1-3)GalNAc
Summary of the method: as §1

[7] = biological target: Fuc(a1-2)[Gal(a1-3)]Gal(b1-3)GalNAc(b1-3)Gal(a1-4)Gal(b1-4)Glc
Summary of the method: as §1

[8] = biological target: Fuc(a1-2)[Gal(a1-3)]Gal(b1-3)GlcNAc
Summary of the method: as §1

[9] = biological target: Fuc(a1-2)[Gal(a1-3)]Gal(b1-3)GlcNAc(b1-2)Man(a1-3)[Fuc(a1-2)[Gal(a1-3)]Gal(b1-3)GlcNAc(b1-2)Man(a1-6)]Man(b1-4)GlcNAc(b1-4)GlcNAc
Summary of the method: as §1

[10] = biological target: Fuc(a1-2)[Gal(a1-3)]Gal(b1-3)GlcNAc(b1-2)Man(a1-3)[Fuc(a1-2)[Gal(a1-3)]Gal(b1-3)GlcNAc(b1-2)Man(a1-6)]Man(b1-4)GlcNAc(b1-4)[Fuc(a1-6)]GlcNAc
Summary of the method: as §1

[11] = biological target: Fuc(a1-2)[Gal(a1-3)]Gal(b1-3)GlcNAc(b1-3)GalNAc
Summary of the method: as §1

[12] = biological target: Fuc(a1-2)[Gal(a1-3)]Gal(b1-3)GlcNAc(b1-6)GalNAc
Summary of the method: as §1

[13] = biological target: Fuc(a1-2)[Gal(a1-3)]Gal(b1-4)Glc
Summary of the method: as §1

[14] = biological target: Fuc(a1-2)[Gal(a1-3)]Gal(b1-4)GlcNAc
Summary of the method: as §1

[15] = biological target: Fuc(a1-2)[Gal(a1-3)]Gal(b1-4)GlcNAc(b1-2)Man
Summary of the method: as §1

[16] = biological target: Fuc(a1-2)[Gal(a1-3)]Gal(b1-4)GlcNAc(b1-2)Man(a1-3)[Fuc(a1-2)[Gal(a1-3)]Gal(b1-4)GlcNAc(b1-2)Man(a1-6)]Man(b1-4)GlcNAc(b1-4)GlcNAc
Summary of the method: as §1

[17] = biological target: Fuc(a1-2)[Gal(a1-3)]Gal(b1-4)GlcNAc(b1-2)Man(a1-3)[Fuc(a1-2)[Gal(a1-3)]Gal(b1-4)GlcNAc(b1-2)Man(a1-6)]Man(b1-4)GlcNAc(b1-4)[Fuc(a1-6)]GlcNAc
Summary of the method: as §1

[18] = biological target: Fuc(a1-2)[Gal(a1-3)]Gal(b1-4)GlcNAc(b1-3)GalNAc
Summary of the method: as §1

[19] = biological target: Fuc(a1-2)[Gal(a1-3)]Gal(b1-4)GlcNAc(b1-3)[Fuc(a1-2)[Gal(a1-3)]Gal(b1-4)GlcNAc(b1-6)]GalNAc
Summary of the method: as §1

[20] = biological target: Fuc(a1-2)[Gal(a1-3)]Gal(b1-4)GlcNAc(b1-6)GalNAc
Summary of the method: as §1

[21] = biological target: Fuc(a1-2)[Gal(a1-3)]Gal(b1-4)[Fuc(a1-3)]Glc
Summary of the method: as §1

[22] = biological target: Fuc(a1-2)[Gal(a1-3)]Gal(b1-4)[Fuc(a1-3)]GlcNAc
Summary of the method: as §1

[23] = biological target: Fuc(a1-2)[Gal(a1-3)]Gal(b1-4)[Fuc(a1-3)]GlcNAc(b1-3)GalNAc
Summary of the method: as §1

[24] = biological target: Fuc(a1-2)[Gal(a1-4)]Gal(b1-4)GlcNAc
Summary of the method: as §1

[25] = biological target: Fuc(a1-2)[GalNAc(a1-3)]Gal
Summary of the method: as §1

[26] = biological target: Fuc(a1-2)[GalNAc(a1-3)]Gal(b1-3)GalNAc(a1-3)[Fuc(a1-2)]Gal(b1-4)GlcNAc
Summary of the method: as §1

[27] = biological target: Fuc(a1-2)[GalNAc(a1-3)]Gal(b1-3)GalNAc(b1-3)Gal(a1-4)Gal(b1-4)Glc
Summary of the method: as §1

[28] = biological target: Fuc(a1-2)[GalNAc(a1-3)]Gal(b1-3)GlcNAc
Summary of the method: as §1

[29] = biological target: Fuc(a1-2)[GalNAc(a1-3)]Gal(b1-3)GlcNAc(b1-2)Man(a1-3)[Fuc(a1-2)[GalNAc(a1-3)]Gal(b1-3)GlcNAc(b1-2)Man(a1-6)]Man(b1-4)GlcNAc(b1-4)GlcNAc
Summary of the method: as §1

[30] = biological target: Fuc(a1-2)[GalNAc(a1-3)]Gal(b1-3)GlcNAc(b1-2)Man(a1-3)[Fuc(a1-2)[GalNAc(a1-3)]Gal(b1-3)GlcNAc(b1-2)Man(a1-6)]Man(b1-4)GlcNAc(b1-4)[Fuc(a1-6)]GlcNAc
Summary of the method: as §1

[31] = biological target: Fuc(a1-2)[GalNAc(a1-3)]Gal(b1-3)GlcNAc(b1-3)GalNAc
Summary of the method: as §1

[32] = biological target: Fuc(a1-2)[GalNAc(a1-3)]Gal(b1-3)GlcNAc(b1-6)GalNAc
Summary of the method: as §1

[33] = biological target: Fuc(a1-2)[GalNAc(a1-3)]Gal(b1-4)Glc
Summary of the method: as §1

[34] = biological target: Fuc(a1-2)[GalNAc(a1-3)]Gal(b1-4)GlcNAc
Summary of the method: as §1

[35] = biological target: Fuc(a1-2)[GalNAc(a1-3)]Gal(b1-4)GlcNAc(b1-2)Man
Summary of the method: as §1

[36] = biological target: Fuc(a1-2)[GalNAc(a1-3)]Gal(b1-4)GlcNAc(b1-2)Man(a1-3)[Fuc(a1-2)[GalNAc(a1-3)]Gal(b1-4)GlcNAc(b1-2)Man(a1-6)]Man(b1-4)GlcNAc(b1-4)GlcNAc
Summary of the method: as §1

[37] = biological target: Fuc(a1-2)[GalNAc(a1-3)]Gal(b1-4)GlcNAc(b1-2)Man(a1-3)[Fuc(a1-2)[GalNAc(a1-3)]Gal(b1-4)GlcNAc(b1-2)Man(a1-6)]Man(b1-4)GlcNAc(b1-4)[Fuc(a1-6)]GlcNAc
Summary of the method: as §1

[38] = biological target: Fuc(a1-2)[GalNAc(a1-3)]Gal(b1-4)GlcNAc(b1-3)Gal(b1-4)GlcNAc
Summary of the method: as §1

[39] = biological target: Fuc(a1-2)[GalNAc(a1-3)]Gal(b1-4)GlcNAc(b1-3)Gal(b1-4)GlcNAc(b1-3)Gal(b1-4)GlcNAc
Summary of the method: as §1

[40] = biological target: Fuc(a1-2)[GalNAc(a1-3)]Gal(b1-4)GlcNAc(b1-3)GalNAc
Summary of the method: as §1

[41] = biological target: Fuc(a1-2)[GalNAc(a1-3)]Gal(b1-4)GlcNAc(b1-3)[Fuc(a1-2)[GalNAc(a1-3)]Gal(b1-4)GlcNAc(b1-6)]GalNAc
Summary of the method: as §1

[42] = biological target: Fuc(a1-2)[GalNAc(a1-3)]Gal(b1-4)GlcNAc(b1-6)GalNAc
Summary of the method: as §1

[43] = biological target: Fuc(a1-2)[GalNAc(a1-3)]Gal(b1-4)[Fuc(a1-3)]GlcNAc
Summary of the method: as §1

[44] = biological target: Fuc(a1-2)[GalNAc(a1-3)]Gal(b1-4)[Fuc(a1-3)]GlcNAc(b1-3)GalNAc
Summary of the method: as §1

[45] = biological target: Fuc(a1-2)[GalNAc(a1-4)]Gal(b1-4)GlcNAc
Summary of the method: as §1

B1: BIp1-His (Cryptococcus neoformans) (protein)
chain: MFTKIFVALFAATAVLSAPVESAEKRITHTGRATFYSPSVGIGACGWQNTDEELVVALNAPQYALNADHNCGQSVRITNEQNGNQEIAKVVDLCPGCNDGDLDMSPALFGALNNNDFDQGVFPISWNFLPRDDTSSSN
**Q.** Which “glycan array binding signal (z-score)” value [1] does the source give for B1 here?
**A.** -0.555

**Q.** What about the “glycan array binding signal (z-score)” value [2] of the same binder?
**A.** -0.124

**Q.** And the “glycan array binding signal (z-score)” value [3]?
**A.** 1.11

**Q.** What about the “glycan array binding signal (z-score)” value [4] of the same binder?
**A.** -0.846

**Q.** And the “glycan array binding signal (z-score)” value [5]?
**A.** -0.04

**Q.** What about the “glycan array binding signal (z-score)” value [6] of the same binder?
**A.** -0.496

**Q.** What about the “glycan array binding signal (z-score)” value [7] of the same binder?
**A.** -0.651

**Q.** And the “glycan array binding signal (z-score)” value [8]?
**A.** -0.182

**Q.** And the “glycan array binding signal (z-score)” value [9]?
**A.** 0.152

**Q.** And the “glycan array binding signal (z-score)” value [10]?
**A.** 0.135

**Q.** And the “glycan array binding signal (z-score)” value [11]?
**A.** -0.664

**Q.** And the “glycan array binding signal (z-score)” value [12]?
**A.** -0.487

**Q.** And the “glycan array binding signal (z-score)” value [13]?
**A.** 0.482

**Q.** What about the “glycan array binding signal (z-score)” value [14] of the same binder?
**A.** -0.529

**Q.** And the “glycan array binding signal (z-score)” value [15]?
**A.** -0.382

**Q.** And the “glycan array binding signal (z-score)” value [16]?
**A.** 0.514

**Q.** What about the “glycan array binding signal (z-score)” value [17] of the same binder?
**A.** -0.245

**Q.** What about the “glycan array binding signal (z-score)” value [18] of the same binder?
**A.** -0.805

**Q.** What about the “glycan array binding signal (z-score)” value [19] of the same binder?
**A.** 1.23

**Q.** What about the “glycan array binding signal (z-score)” value [20] of the same binder?
**A.** -1.17

**Q.** And the “glycan array binding signal (z-score)” value [21]?
**A.** -0.62

**Q.** What about the “glycan array binding signal (z-score)” value [22] of the same binder?
**A.** 0.068

**Q.** And the “glycan array binding signal (z-score)” value [23]?
**A.** 0.249

**Q.** And the “glycan array binding signal (z-score)” value [24]?
**A.** 0.629

**Q.** What about the “glycan array binding signal (z-score)” value [25] of the same binder?
**A.** 0.126

**Q.** And the “glycan array binding signal (z-score)” value [26]?
**A.** -0.625

**Q.** What about the “glycan array binding signal (z-score)” value [27] of the same binder?
**A.** 0.795

**Q.** What about the “glycan array binding signal (z-score)” value [28] of the same binder?
**A.** 0.046

**Q.** What about the “glycan array binding signal (z-score)” value [29] of the same binder?
**A.** 0.104

**Q.** What about the “glycan array binding signal (z-score)” value [30] of the same binder?
**A.** -0.283

**Q.** What about the “glycan array binding signal (z-score)” value [31] of the same binder?
**A.** -0.241

**Q.** And the “glycan array binding signal (z-score)” value [32]?
**A.** 0.285

**Q.** And the “glycan array binding signal (z-score)” value [33]?
**A.** 0.382

**Q.** What about the “glycan array binding signal (z-score)” value [34] of the same binder?
**A.** -0.772

**Q.** What about the “glycan array binding signal (z-score)” value [35] of the same binder?
**A.** -1.56

**Q.** And the “glycan array binding signal (z-score)” value [36]?
**A.** 0.464

**Q.** What about the “glycan array binding signal (z-score)” value [37] of the same binder?
**A.** 0.393

**Q.** And the “glycan array binding signal (z-score)” value [38]?
**A.** -0.335

**Q.** And the “glycan array binding signal (z-score)” value [39]?
**A.** 0.652

**Q.** And the “glycan array binding signal (z-score)” value [40]?
**A.** -0.851

**Q.** And the “glycan array binding signal (z-score)” value [41]?
**A.** -0.295

**Q.** What about the “glycan array binding signal (z-score)” value [42] of the same binder?
**A.** -0.512

**Q.** What about the “glycan array binding signal (z-score)” value [43] of the same binder?
**A.** 0.331

**Q.** And the “glycan array binding signal (z-score)” value [44]?
**A.** -0.328

**Q.** And the “glycan array binding signal (z-score)” value [45]?
**A.** 0.897

Reference: the supplement of paper PMC8728848
